Data as given in PubChem BioAssay AID1259405 (NCATS, 2018)

Aim: 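Silenced genes that increase secreted GFP made by CHO cells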 (primary screen)
Cell system: Chinese hamster CHO-K1 ovary cells with stable secreted eGFP expression
Reagents: single siRNA against mouse genes, 0.8 pmol siRNA per well (2 µl of 400 nM stock)
Time to read-out: 3 days
Measured: 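Per-well intracellular GFP measured by laser scanning cytometry, plus viability from ATP luminescence, each relative to plate median of non-targeting control wells, in %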
Direction: GFP, % of control: higher = more GFP per well, higher productivity; viability (ATP), % of control: higher = more viable cells (more ATP)
Hit rule: 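Called active when intracellular GFP, relative to negative control, is at or above 120%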
The whole screen tested about 50,000 reagents; this is a part drawn at random. About 4,000 of all reagents (8%) count as active. 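Mouse siRNA library applied to hamster cells; one well for each siRNA.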 Reagents against one gene are numbered here.

Target gene	reagent no.	GFP, % of control	viability (ATP), % of control	activity call
Pigp (GeneID 56176)	1	86.6	76.9	inactive
Pigp (GeneID 56176)	2	105	90.2	inactive
Pigp (GeneID 56176)	3	88.1	74.1	inactive
Pcdha7 (GeneID 12939)	1	93.5	47.6	inactive
Pcdha7 (GeneID 12939)	2	30.8	46	inactive
Pcdha7 (GeneID 12939)	3	71.9	69.2	inactive
Mrps25 (GeneID 64658)	1	76.7	57.8	inactive
Mrps25 (GeneID 64658)	2	55.7	60.5	inactive
Mrps25 (GeneID 64658)	3	100	89	inactive
Dlgap5 (GeneID 218977)	1	57	81	inactive
Dlgap5 (GeneID 218977)	2	92.6	91.6	inactive
Dlgap5 (GeneID 218977)	3	85.9	76	inactive
Nalcn (GeneID 338370)	1	82.6	79.4	inactive
Nalcn (GeneID 338370)	2	37.1	57.3	inactive
Nalcn (GeneID 338370)	3	69.4	59.6	inactive
Nalcn (GeneID 338370)	4	84	56	inactive
Nalcn (GeneID 338370)	5	51.7	76.1	inactive
Nalcn (GeneID 338370)	6	65.2	69.8	inactive
Ptprcap (GeneID 19265)	1	104	105	inactive
Ptprcap (GeneID 19265)	2	56.6	30.7	inactive
Pa2g4 (GeneID 18813)	1	120	122	inactive
Pa2g4 (GeneID 18813)	2	76.3	80.9	inactive
Lancl3 (GeneID 236285)	1	34.9	52	inactive
Lancl3 (GeneID 236285)	2	54.1	83.8	inactive
Lancl3 (GeneID 236285)	3	87.4	107	inactive
Or5l13 (GeneID 258814)	1	56.4	63	inactive
Or5l13 (GeneID 258814)	2	60.7	73.3	inactive
Or5l13 (GeneID 258814)	3	50.3	58.6	inactive
Oxld1 (GeneID 66431)	1	91.9	86.7	inactive
Oxld1 (GeneID 66431)	2	115	74.4	inactive
Oxld1 (GeneID 66431)	3	48.2	64.1	inactive
Htra3 (GeneID 78558)	1	60.3	84.6	inactive
Htra3 (GeneID 78558)	2	89	85.4	inactive
Htra3 (GeneID 78558)	3	76.4	72.7	inactive
P2ry4 (GeneID 57385)	1	104	77.9	inactive
P2ry4 (GeneID 57385)	2	118	84.2	inactive
P2ry4 (GeneID 57385)	3	97.5	60	inactive
Pdzd11 (GeneID 72621)	1	73	65.4	inactive
Pdzd11 (GeneID 72621)	2	23.8	43.3	inactive
Pdzd11 (GeneID 72621)	3	92.1	103	inactive
Tmcc3 (GeneID 319880)	1	63.7	86.7	inactive
Tmcc3 (GeneID 319880)	2	78.2	71.2	inactive
Tmcc3 (GeneID 319880)	3	71.8	95.1	inactive
Actl6a (GeneID 56456)	1	37.8	33	inactive
Actl6a (GeneID 56456)	2	62.7	76.5	inactive
Speer2 (GeneID 224318)	1	99.3	75.7	inactive
Speer2 (GeneID 224318)	2	125	120	active
Speer2 (GeneID 224318)	3	113	113	inactive
Ado (GeneID 211488)	1	60.6	84.1	inactive
Ado (GeneID 211488)	2	61.7	77	inactive
Ado (GeneID 211488)	3	85.8	88.7	inactive
Or6k2 (GeneID 258302)	1	41.4	38.5	inactive
Or6k2 (GeneID 258302)	2	117	96.4	inactive
Or6k2 (GeneID 258302)	3	115	57.8	inactive
Plppr4 (GeneID 229791)	1	68.9	43.9	inactive
Plppr4 (GeneID 229791)	2	96.9	61.9	inactive
Plppr4 (GeneID 229791)	3	75.9	90.8	inactive
Notch1 (GeneID 18128)	1	112	72.8	inactive
Notch1 (GeneID 18128)	2	87.9	61.3	inactive
Notch1 (GeneID 18128)	3	116	143	inactive
As3mt (GeneID 57344)	1	86	96.8	inactive
As3mt (GeneID 57344)	2	90.3	178	inactive
As3mt (GeneID 57344)	3	126	127	active
Ubxn11 (GeneID 67586)	1	60.3	58.4	inactive
Ubxn11 (GeneID 67586)	2	78.3	82.6	inactive
Ubxn11 (GeneID 67586)	3	83	68.5	inactive
Imp4 (GeneID 27993)	1	51.5	67.8	inactive
Imp4 (GeneID 27993)	2	124	53	active
Imp4 (GeneID 27993)	3	119	77.7	inactive
Trim15 (GeneID 69097)	1	54.6	74.3	inactive
Trim15 (GeneID 69097)	2	75.6	69.9	inactive
Trim15 (GeneID 69097)	3	119	123	inactive
Uhmk1 (GeneID 16589)	1	37.2	43.2	inactive
Uhmk1 (GeneID 16589)	2	91.2	75.8	inactive
Uhmk1 (GeneID 16589)	3	122	57.9	active
Gosr2 (GeneID 56494)	1	25.8	49.1	inactive
Gosr2 (GeneID 56494)	2	66.5	66.3	inactive
Gosr2 (GeneID 56494)	3	99.3	77.4	inactive
Prcc (GeneID 94315)	1	48.4	24	inactive
Prcc (GeneID 94315)	2	109	55.3	inactive
Prcc (GeneID 94315)	3	92.2	88.8	inactive
Aqp7 (GeneID 11832)	1	44.5	43.8	inactive
Aqp7 (GeneID 11832)	2	43.3	61.8	inactive
Aqp7 (GeneID 11832)	3	144	99.1	active

Quoted from the entries so far (8 entries):
Target gene	reagent no.	GFP, % of control	viability (ATP), % of control	activity call
Pcdha7 (GeneID 12939)	1	93.5	47.6	inactive
Pcdha7 (GeneID 12939)	2	30.8	46	inactive
Pcdha7 (GeneID 12939)	3	71.9	69.2	inactive
Mrps25 (GeneID 64658)	1	76.7	57.8	inactive
Mrps25 (GeneID 64658)	2	55.7	60.5	inactive
Mrps25 (GeneID 64658)	3	100	89	inactive
Dlgap5 (GeneID 218977)	1	57	81	inactive
Dlgap5 (GeneID 218977)	2	92.6	91.6	inactive
